# Test results taken from doi:10.1101/2025.09.29.679137.
# These are yes or no findings as the source states them, for the method shown. In cells and extracts the contact can be indirect. Some entries that bind do so weakly or less than the wild type.
# T1: NEPN (bait of the immunoprecipitations from tumor lysates and from the liver metastasis site) (mouse) (UniProt Q9CQ76)
# T1 sequence: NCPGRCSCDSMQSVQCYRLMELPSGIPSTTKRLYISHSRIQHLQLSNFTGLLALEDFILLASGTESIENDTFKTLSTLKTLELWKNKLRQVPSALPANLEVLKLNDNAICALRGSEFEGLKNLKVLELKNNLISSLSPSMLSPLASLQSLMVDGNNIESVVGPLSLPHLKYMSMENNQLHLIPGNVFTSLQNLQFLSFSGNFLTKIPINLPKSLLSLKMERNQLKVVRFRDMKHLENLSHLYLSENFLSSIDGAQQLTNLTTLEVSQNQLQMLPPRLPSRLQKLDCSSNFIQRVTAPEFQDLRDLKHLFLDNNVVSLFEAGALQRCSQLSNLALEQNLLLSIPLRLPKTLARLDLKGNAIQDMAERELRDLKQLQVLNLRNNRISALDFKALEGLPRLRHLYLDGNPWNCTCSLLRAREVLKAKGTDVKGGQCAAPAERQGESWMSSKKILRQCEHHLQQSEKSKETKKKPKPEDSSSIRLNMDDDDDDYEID
# B1: IL-10 (ligand, UniProt P18893 19-178)
# chain: SRGQYSREDNNCTHFPVGQSHMLLELRTAFSQVKTFFQTKDQLDNILLTDSLMQDFKGYLGCQALSEMIQFYLVEVMPQAEKHGPEIKEHLNSLGEKLKTLRMRLRRCHRFLPCENKSKAVEQVKSDFNKLQDQGVYKAMNEFDIFINCIEAYMMIKMKS
# Target: T1, NEPN (bait of the immunoprecipitations from tumor lysates and from the liver metastasis site) (mouse)
# Experiment: co-IP
binder,measurement,value
B1,binding,binds
